The chains are these.
B1: TP-3A4 Fab (Fab, V domains shown)
VH: QVQLVESGGGLVQPGGSLRLSCAASGFTFSSYWMHWVRQAPGKGLEWVSSISYDSSNTYYADSVKGRFTISRDNSKNTLYLQMNSLRAEDTAVYYCARYGGMDYWGQGTLVTVSS
VL: DIELTQPPSVSVAPGQTARISCSGDNLRDKYASWYQQKPGQAPVLVIYSKSERPSGIPERFSGSNSGNTATLTISGTQAEDEADYYCSSYTLNPNLNYVFGGGTKLTVLG
B2: TP-2E5 Fab (Fab, V domains shown)
VH: QVQLQQSGPGLVKPSQTLSLTCAISGDSVSSNSAAWSWIRQSPGRGLEWLGMIFYRSKWNNDYAVSVKSRITINPDTSKNQFSLQLNSVTPEDTAVYYCARVNANGYYAYVDLWGQGTLVTVSS
VL: DIQMTQSPSSLSASVGDRVTITCRASQPIYNSLSWYQQKPGKAPKLLIYGVSNLQSGVPSRFSGSGSGTDFTLTISSLQPEDFAVYYCLQVDNLPITFGQGTKVEIKR
B3: TP-2C7 Fab (Fab, V domains shown)
VH: QVQLQQSGPGLVKPSQTLSLTCAISGDSVSSNSAAWGWIRQSPGRGLEWLGIIYYRSKWYNHYAVSVKSRITINPDTSKNQFSLQLNSVTPEDTAVYYCARSNWSGYFDYWGQGTLVTVSS
VL: DIQMTQSPSSLSASVGDRVTITCRASQDIRNNLAWYQQKPGKAPKLLIYAASSLQSGVPSRFSGSGSGTDFTLTISSLQPEDFAVYYCQQRNGFPLTFGQGTKVEIKR
B4: TP-2A2 Fab (Fab, V domains shown)
VH: QVQLVESGGGLVQPGGSLRLSCAASGFTFSNNAMNWVRQAPGKGLEWVSTISYDGSNTYYADSVKGRFTISRDNSKNTLYLQMNSLRAEDTAVYYCARQAGGWTYSYTDVWGQGTLVTVSS
VL: DIELTQPPSVSVAPGQTARISCSGDNIRTYYVHWYQQKPGQAPVVVIYGDSKRPSGIPERFSGSNSGNTATLTISGTQAEDEADYYCQSYDSEADSEVFGGGTKLTVLG
B5: TP-2B3 Fab (Fab, V domains shown)
VH: QVQLQQSGPGLVKPSQTLSLTCAISGDSVSSNSAAWGWIRQSPGRGLEWLGMIYYRSKWYNSYAVSVKSRITINPDTSKNQFSLQLNSVTPEDTAVYYCARTMSKYGGPGMDVWGQGTLVTVSS
VL: DIVLTQSPATLSLSPGERATLSCRASQNIGSNYLAWYQQKPGQAPRLLIYGASTRATGVPARFNGSGSGTDFTLTISSLEPEDFAVYYCQQLNSIPVTFGQGTKVEIKR
B6: TP-2G6 Fab (Fab, V domains shown)
VH: QVQLQQSGPGLVKPSQTLSLTCAISGDSVSSSSAAWSWIRQSPGRGLEWLGIIYYRSKWYNDYAVSVKSRITINPDTSKNQFSLQLNSVTPEDTAVYYCARHSMVGFDVWGQGTLVTVSS
VL: DIVLTQSPATLSLSPGERATLSCRASQYVTSSYLAWYQQKPGQAPRLLIYGSSRATGVPARFSGSGSGTDFTLTISSLEPEDFATYYCQQYSSSPITFGQGTKVEIKR
B7: TP-2G9 Fab (Fab, V domains shown)
VH: QVQLVESGGGLVQPGGSLRLSCAASGFTFNSYAMTWVRQAPGKGLEWVSAIKSDGSNTYYADSVKGRFTISRDNSKNTLYLQMNSLRAEDTAVYYCARNDSGWFDVWGQGTLVTVSS
VL: DIALTQPASVSGSPGQSITISCTGTSSDLGGFNTVSWYQQHPGKAPKLMIYSVSSRPSGVSNRFSGSKSGNTASLTISGLQAEDEADYYCQSYDLNNLVFGGGTKLTVLG
B8: TP-2A8 Fab (Fab, V domains shown)
VH: QVQLVESGGGLVQPGGSLRLSCAASGFTFRSYGMSWVRQAPGKGLEWVSSIRGSSSSTYYADSVKGRFTISRDNSKNTLYLQMNSLRAEDTAVYYCARKYRYWFDYWGQGTLVTVSS
VL: DIELTQPPSVSVAPGQTARISCSGDNLRNYYAHWYQQKPGQAPVVVIYYDNNRPSGIPERFSGSNSGNTATLTISGTQAEDEADYYCQSWDDGVPVFGGGTKLTVLG

Sequences of proteins named here, by UniProt entry; tags and fusion partners are left off. Residues count along the entry.
UniProt O54819, residues 29-289: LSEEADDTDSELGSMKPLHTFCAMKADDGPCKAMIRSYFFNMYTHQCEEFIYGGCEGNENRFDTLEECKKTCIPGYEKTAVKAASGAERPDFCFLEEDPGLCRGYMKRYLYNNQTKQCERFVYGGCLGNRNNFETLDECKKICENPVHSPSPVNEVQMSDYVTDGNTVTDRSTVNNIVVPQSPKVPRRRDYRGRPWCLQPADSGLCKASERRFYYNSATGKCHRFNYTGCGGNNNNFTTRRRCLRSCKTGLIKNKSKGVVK

These are yes or no findings as the source states them, for the method shown. Some results given as binding are weak or reduced against the parent protein; the word gives no strength.

The target of the experiment is mouse tissue factor pathway inhibitor (TFPI) (mouse) (UniProt O54819). Description: ELISA, coated mouse TFPI. On the technique in general: In an ELISA, binding on a coated surface is turned into a signal by an enzyme label.
With B1, the binding entry is “binds”.

With B2, the binding entry is “binds”.

Take B3: the binding result is recorded as “binds”.

In the case of B4, the binding result is “binds”.

On to B5, for which the binding entry is on record as “binds”.

In the case of B6, the binding result is listed as “binds”.

On to B7, for which the binding result is recorded as “binds”.

Take B8: the binding entry was “binds”.

Values taken from patent US20120269817A1.
